{"sequences": {"note": "Chains of the proteins cited; added tags and fusions are not shown. Lines headed by an entry give the natural chain unless they say otherwise; changes in a name come on top.", "UniProt P51450": "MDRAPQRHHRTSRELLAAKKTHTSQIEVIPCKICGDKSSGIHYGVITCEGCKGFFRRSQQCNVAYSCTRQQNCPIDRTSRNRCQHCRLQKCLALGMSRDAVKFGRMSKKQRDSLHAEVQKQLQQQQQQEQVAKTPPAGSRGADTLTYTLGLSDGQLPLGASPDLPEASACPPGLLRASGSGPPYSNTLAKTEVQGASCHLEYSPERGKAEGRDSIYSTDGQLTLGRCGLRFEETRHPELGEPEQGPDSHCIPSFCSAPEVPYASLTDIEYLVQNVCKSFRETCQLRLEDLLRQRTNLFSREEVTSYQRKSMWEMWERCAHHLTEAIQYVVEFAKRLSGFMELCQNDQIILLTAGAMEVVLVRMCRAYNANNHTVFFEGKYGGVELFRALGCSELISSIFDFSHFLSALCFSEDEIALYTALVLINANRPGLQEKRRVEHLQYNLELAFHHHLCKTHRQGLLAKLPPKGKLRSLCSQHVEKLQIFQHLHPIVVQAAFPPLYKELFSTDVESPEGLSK"}, "source": "PubChem BioAssay AID2551", "about": "(National Center for Advancing Translational Sciences (NCATS), 2010)", "note": "Values joined by “and” are separate entries in the source; they are usually repeats but may differ in a detail not shown here. Equal values may be shown once. In all, about 310,000 compounds went through this assay and about 17,000 (5.5%) were called active. Inconclusive means that the source gave no clear call. Such entries were picked first, then a sample of the others. The call rests on the fitted dose curve; in most records, active means well fitted inhibition curve with a large enough effect; inconclusive means small, poorly fitted or top-dose-only effect, or effect the other way; inactive means no such curve, though single readings can be large or run the other way. Where the call is inconclusive, the potency comes from a doubtful curve fit."}
{"target": "Nuclear receptor ROR-gamma (Mus musculus) (UniProt P51450)", "assay": "qHTS for inhibitors of ROR gamma transcriptional activity; further: nearly all actives have a fitted effect of over 60% in size; further: potency means the concentration at half of the fitted maximal effect; on activity change, negative = inhibition: on the % scale 0 is the no-effect control and ±100 the full control effect", "settings": "Drosophila S2 Gal4-RORgamma UAS-luciferase reporter, 20 h; activity change, negative = inhibition: at 53.6 µM (top of the series)", "outline": "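Drosophila Schneider cells stably carrying a metallothionein-driven Gal4 DBD–ROR gamma fusion and a UAS-Photinus luciferase reporter were exposed to compound for 1 hr, then induced with copper sulfate (700 uM final) for 20 hr at ambient temperature before luminescence reading.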"}
{"molecule": "O=C(NCc1ccncc1)C1CCCN(S(=O)(=O)Cc2ccccc2)C1", "note": "(stereo not given)", "Potency": "inactive"}
{"molecule": "Cc1ccc(C)c(-n2c(-c3csc(C)c3)n[nH]c2=S)c1", "Potency": "active: 3.16 µM"}
{"molecule": "O=C1CN(C(=O)CNCc2cccc(Cl)c2)c2ccccc2N1", "Potency": "inactive"}
{"molecule": "CN1C(=O)COc2ccc(C(=O)c3oc4ccccc4c3-c3cnc4c(c3)COc3ccccc3-4)cc21", "Potency": "inconclusive: 14.1 µM [activator, single point]"}
{"molecule": "C=CCN1C(=O)C(Cc2ccc(F)cc2)S/C1=N/N=C/c1ccco1", "note": "(stereo not given)", "Potency": "inactive"}
{"molecule": "COc1cc(NC(=S)NC(=O)c2ccc(C)cc2C)ccc1NC(=O)c1cccs1", "Potency": "inconclusive: 5.62 µM [inhibitor, partial curve, poor fit]"}
{"molecule": "COc1cccc(NC(=O)CC2COc3ccccc3O2)c1", "note": "(stereo not given)", "Potency": "inconclusive: 12.6 µM [activator, single point]"}
{"molecule": "C/C(N=Nc1nc2ccccc2s1)=N\\Nc1ccccc1O", "Potency": "active: 8.91 µM"}
{"molecule": "Cc1cnc(CNc2ncnc3ccc(-c4ccc(N(C)C)cc4)cc23)cn1", "Potency": "inactive"}
{"molecule": "Cc1ccc(N2C(=O)CC(Sc3ncccn3)C2=O)cc1C", "note": "(stereo not given)", "Potency": "active: 12.6 µM"}
{"molecule": "COc1cc(OC)cc(-c2cc3nc(C)c(CCC(=O)NC(C)CCc4ccco4)c(C)n3n2)c1", "note": "(stereo not given)", "Potency": "inconclusive: 10 µM [inhibitor, partial curve, poor fit]"}
{"molecule": "N=c1c2c(n(Cc3ccc(Cl)cc3)c3c1CCC3)CCC2", "Potency": "inactive"}
{"molecule": "CN1c2ccccc2N(C)C1c1ccc2c(c1)OCO2", "Potency": "inactive"}
{"molecule": "NC(=O)c1c(NC(=O)CSc2nnc(-c3ccccc3)n2CC2CCCO2)sc2c1CCC2", "note": "(stereo not given)", "Potency": "inconclusive: 31.6 µM [activator, single point]"}
{"molecule": "COc1ccc2[nH]c(C(=O)N(C)Cc3ccccc3)c(C)c2c1", "Potency": "inconclusive: 6.31 µM [activator, partial curve, poor fit]"}
{"molecule": "COc1ccc(OCc2cc(C(=O)N(C)CCC3CCOCC3)no2)c(Cl)c1", "Potency": "inconclusive: 2.24 µM [activator, full curve]"}
{"molecule": "COc1ccc(C#CC2C=CC(OC(C)=O)C(COC(C)=O)O2)cc1", "note": "(stereo not given)", "activity change, negative = inhibition": "inactive: 29.6% [at 10 µM] and inactive: -1.91% [at 10 µM]"}
{"molecule": "CC(=O)c1cccc(NS(=O)(=O)c2ccc(N/C=C/C(=O)c3ccc(F)cc3)cc2)c1", "Potency": "inconclusive: 35.5 µM [inhibitor, single point]"}
{"molecule": "NC(=S)N/N=C/c1ccccc1OCCSc1ccc(Cl)cc1", "Potency": "inconclusive: 20 µM [inhibitor, single point]"}
{"molecule": "CN(CC(=O)Nc1ccccc1C(F)(F)F)C(=O)COc1ncnc2sccc12", "Potency": "inconclusive: 0.112 µM [inhibitor, full curve, poor fit]"}
